# Test results from patent US20260274981A1.
# These are yes or no findings as the source states them, for the method shown. Some entries that bind do so weakly or less than the wild type.
# Target: recombinant human TfR (2474-TR, R&D Systems), biotinylated (human) (UniProt P02786)
# Experiment: SPR (Biacore), biotinylated human TfR on SA chip, off rates at pH7.4 and pH5.5
row,Binder,binding
1,BBB00697 (VHH) VHH: EVQLVESGGGSVQPGGSLRLSCTASGRTHNYAMGWFRQAPGKNREFVATIDWKDGSSYYLDSVRGRFTIERDDAKNTVYLQMNSLRPEDAAVYTCAVGDGDYCSTYTCAAEVEYDYWGQGTLVTVSS,binds
2,BBB00698 (VHH) VHH: EVQLVESGGGSVQPGGSLRLSCTASGRTFHYAMGWFRQAPGKNREFVATIDWKDGSSYYLDSVRGRFTIERDDAKNTVYLQMNSLRPEDAAVYTCAVGDGDYCSTYTCAAEVEYDYWGQGTLVTVSS,binds
3,BBB00704 (VHH) VHH: EVQLVESGGGSVQPGGSLRLSCTASGRTFNYAMGWFRQAPGKNREFVATHDWKDGSSYYLDSVRGRFTIERDDAKNTVYLQMNSLRPEDAAVYTCAVGDGDYCSTYTCAAEVEYDYWGQGTLVTVSS,binds
4,BBB00709 (VHH) VHH: EVQLVESGGGSVQPGGSLRLSCTASGRTFNYAMGWFRQAPGKNREFVATIDWKDHSSYYLDSVRGRFTIERDDAKNTVYLQMNSLRPEDAAVYTCAVGDGDYCSTYTCAAEVEYDYWGQGTLVTVSS,binds
5,BBB00710 (VHH) VHH: EVQLVESGGGSVQPGGSLRLSCTASGRTFNYAMGWFRQAPGKNREFVATIDWKDGHSYYLDSVRGRFTIERDDAKNTVYLQMNSLRPEDAAVYTCAVGDGDYCSTYTCAAEVEYDYWGQGTLVTVSS,binds
6,BBB00718 (VHH) VHH: EVQLVESGGGSVQPGGSLRLSCTASGRTFNYAMGWFRQAPGKNREFVATIDWKDGSSYYLDSVRGRFTIERDDAKNTVYLQMNSLRPEDAAVYTCAVGDGDYCHTYTCAAEVEYDYWGQGTLVTVSS,binds
7,BBB00729 (VHH) VHH: EVQLVESGGGSVQPGGSLRLSCTASGRTFNYAMGWFRQAPGKNREFVATIDWKDGSSYYLDSVRGRFTIERDDAKNTVYLQMNSLRPEDAAVYTCAVGDGDYCSTYTCAAEVEYDHWGQGTLVTVSS,binds
